PubChem BioAssay AID1159578 – Peter MacCallum Cancer Centre, 2015
This is one part, drawn at random, of about 18,000 deposited reagents. Of all reagents, about 1,030 (5.7%) are marked active. 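Inactive calls also include pools with fewer than 3300 nuclei, whose migration was not assessed.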 The raw values are shown without normalisation. Unmarked entries are inactive. Not all columns of the deposit are shown. No sequences are given here.

Purpose: 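Genome-wide hunt for genes controlling movement of lymphatic endothelial cells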 (primary screen)
Cells: human lymphatic endothelial cells
Knock-down reagent: siRNA pool against human genes, 40 nM
Timing: 48 h after transfection
Read-out: 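High-content imaging of dye-stained cells in a scratch assay measures filled wound area and nuclei per well; duplicate means given as ratio to mock and robust z-score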
Scale: migration robust z-score: higher = faster migration into the scratch; nuclei per well: higher = more cells in the well
Rule for the call: 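Migration changed when robust z exceeds 2 or falls below -2 and mean nuclei number is at least 3300; otherwise not called changed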
Meaning of the calls: active = migration changed; inactive = no migration change, or too few cells

target gene | PubChem SID | migration robust z-score | nuclei per well, duplicate mean
ELAC2 (GeneID 60528) | SID255359726 | -0.39 | 5351
MYCBPAP (GeneID 84073) | SID255361181 | 0.66 | 4924
TACO1 (GeneID 51204) | SID255357559 | -0.64 | 5890
SEC23IP (GeneID 11196) | SID255355674 | -0.52 | 6481
NFATC4 (GeneID 4776) | SID255351217 | -2.54 (active) | 6216
CYLC2 (GeneID 1539) | SID255349191 | -0.39 | 6203
H2AC13 (GeneID 8329) | SID255353474 | -1.94 | 4067
ZACN (GeneID 353174) | SID255365284 | 0.44 | 6256
NXNL2 (GeneID 158046) | SID255363645 | -0.68 | 5939
FBXL15 (GeneID 79176) | SID255360253 | 0.57 | 5417
KRT78 (GeneID 196374) | SID255363961 | -0.22 | 4552
PDE10A (GeneID 10846) | SID255355386 | -0.83 | 4562
TRMT10A (GeneID 93587) | SID255362083 | -0.2 | 6468
AMY1B (GeneID 277) | SID255348300 | -0.64 | 5541
FANCG (GeneID 2189) | SID255349627 | 1.92 | 5671
MAGEB18 (GeneID 286514) | SID255364924 | 0.78 | 6535
SVEP1 (GeneID 79987) | SID255360611 | 1.82 | 6280
TMEM200B (GeneID 399474) | SID255365714 | -1.73 | 6814
ART5 (GeneID 116969) | SID255362398 | -0.86 | 5195
WNK1 (GeneID 65125) | SID255360098 | 0.16 | 5836
WNK1 (GeneID 65125) | SID255365399 | -1.77 | 4158
SYTL2 (GeneID 54843) | SID255358206 | 0.88 | 4542
COX6C (GeneID 1345) | SID255349044 | 0.42 | 7378
OR2M2 (GeneID 391194) | SID255365686 | -1.1 | 5222
UBE2Q2 (GeneID 92912) | SID255362043 | 1.09 | 4710
TNRC6B (GeneID 23112) | SID255355998 | 0.38 | 5516
KIR3DX1 (GeneID 90011) | SID255361776 | 1.88 | 7002
MAGEA11 (GeneID 4110) | SID255350854 | 0.49 | 5654
ISG20L2 (GeneID 81875) | SID255360971 | 0.47 | 6494
PIP4K2B (GeneID 8396) | SID255353526 | -1.61 | 3830
TMEM161B (GeneID 153396) | SID255363563 | -0.73 | 6436
MFAP1 (GeneID 4236) | SID255350943 | -0.22 | 5915
PABPN1L (GeneID 390748) | SID255365662 | -1.08 | 4319
ADGRF2P (GeneID 222611) | SID255364351 | -1.48 | 5400
RABEPK (GeneID 10244) | SID255354930 | -1.84 | 4027
PLEKHG5 (GeneID 57449) | SID255359387 | -0.83 | 6467
ZFHX2 (GeneID 85446) | SID255361698 | 0.41 | 5328
HSBP1 (GeneID 3281) | SID255350316 | 0.11 | 6220
RDH5 (GeneID 5959) | SID255352079 | 0.08 | 8516
FZD8 (GeneID 8325) | SID255353471 | -1.02 | 4454
FBXL4 (GeneID 26235) | SID255356727 | 1.3 | 5724
H4C6 (GeneID 8361) | SID255353504 | 1.18 | 5622
PSMB1 (GeneID 5689) | SID255351883 | 0.18 | 5360
HLA-DPA1 (GeneID 3113) | SID255350201 | 0.84 | 6184
PCNX2 (GeneID 80003) | SID255360617 | -0.5 | 5204
OAS1 (GeneID 4938) | SID255351329 | -0.08 | 5104
ZIC1 (GeneID 7545) | SID255353178 | -1.3 | 6394
F10 (GeneID 2159) | SID255349602 | -0.47 | 4650
PSTPIP2 (GeneID 9050) | SID255353993 | -1.53 | 3266
SALL3 (GeneID 27164) | SID255356957 | -0.88 | 4742
C20orf96 (GeneID 140680) | SID255363116 | 0.78 | 5564
THAP1 (GeneID 55145) | SID255358445 | -1.33 | 5614
RBBP4 (GeneID 5928) | SID255352060 | 0.75 | 5286
KLK3 (GeneID 354) | SID255348359 | -1.25 | 5274
CLMP (GeneID 79827) | SID255360494 | 1.01 | 6560
ATAD3B (GeneID 83858) | SID255361104 | 1.34 | 5453
TUBGCP4 (GeneID 27229) | SID255356976 | 0.71 | 5237
B3GAT3 (GeneID 26229) | SID255356721 | -0.1 | 5572
GLOD4 (GeneID 51031) | SID255357425 | -0.24 | 7248
CCDC60 (GeneID 160777) | SID255363712 | 0.79 | 4908
TDRP (GeneID 157695) | SID255363631 | 0.68 | 6150
SOS2 (GeneID 6655) | SID255352571 | -0.59 | 5242
CMTM1 (GeneID 113540) | SID255362196 | 0.32 | 5224
AP1B1 (GeneID 162) | SID255348223 | -1.5 | 4849
FAM13A (GeneID 10144) | SID255354845 | -1.22 | 3449
CATSPERT (GeneID 151254) | SID255363487 | -2.84 (active) | 5512
DYNC1LI2 (GeneID 1783) | SID255349341 | -1.14 | 7488
OR6C74 (GeneID 254783) | SID255364466 | 1.14 | 5612
TTC32 (GeneID 130502) | SID255362864 | -0.14 | 5294
SIRT5 (GeneID 23408) | SID255356219 | -0.42 | 5784
MTUS1 (GeneID 57509) | SID255359430 | 0.2 | 5652
PACSIN3 (GeneID 29763) | SID255357165 | 0.65 | 5155
PAX6 (GeneID 5080) | SID255351425 | 0.08 | 6025
